Percent effect of library compounds

Chains of the proteins cited; added tags and fusions are not shown. Residues count along the entry.
UniProt P9WPC5, whole entry: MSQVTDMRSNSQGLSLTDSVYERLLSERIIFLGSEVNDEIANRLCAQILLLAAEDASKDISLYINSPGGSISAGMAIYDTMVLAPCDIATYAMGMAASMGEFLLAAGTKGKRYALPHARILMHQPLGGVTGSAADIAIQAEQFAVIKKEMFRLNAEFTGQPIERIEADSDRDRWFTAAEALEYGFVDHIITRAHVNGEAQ
UniProt P9WPC3, whole entry partner: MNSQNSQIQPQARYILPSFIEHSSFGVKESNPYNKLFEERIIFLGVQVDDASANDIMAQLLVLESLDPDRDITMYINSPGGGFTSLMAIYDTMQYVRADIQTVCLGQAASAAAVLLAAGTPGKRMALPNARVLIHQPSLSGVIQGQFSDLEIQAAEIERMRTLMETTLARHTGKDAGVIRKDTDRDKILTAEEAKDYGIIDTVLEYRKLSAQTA
UniProt A4I591, 1-473: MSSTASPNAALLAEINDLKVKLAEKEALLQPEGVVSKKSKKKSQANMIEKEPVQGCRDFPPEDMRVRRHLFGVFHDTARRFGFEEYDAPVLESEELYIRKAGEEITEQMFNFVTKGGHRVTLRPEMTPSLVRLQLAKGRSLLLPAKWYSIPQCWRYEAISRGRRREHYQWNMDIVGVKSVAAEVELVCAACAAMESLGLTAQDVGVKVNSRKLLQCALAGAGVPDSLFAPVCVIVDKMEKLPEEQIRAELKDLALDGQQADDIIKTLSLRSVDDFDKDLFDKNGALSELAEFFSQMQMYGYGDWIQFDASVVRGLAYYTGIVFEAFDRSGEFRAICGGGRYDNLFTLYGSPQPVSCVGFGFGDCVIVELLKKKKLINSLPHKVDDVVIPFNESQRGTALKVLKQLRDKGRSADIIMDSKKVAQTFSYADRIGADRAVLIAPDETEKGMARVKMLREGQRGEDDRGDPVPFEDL

A: 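ClpP1P2, Mycobacterium tuberculosis (UniProt P9WPC5 and UniProt P9WPC3). Protease assay of ClpP1P2, read by the AMC dye that it sets free. Concentration: 50 µM. Higher reads as stronger inhibition, judged from the few compounds that gave an IC50. Most other retested compounds had strongly negative values. About 69,000 compounds were tested under these conditions; 0.015% (about 10) showed 50% or more at least once.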
B: 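Enzyme assay of histidyl-tRNA synthetase; the read-out is not stated. Target: Histidine-tRNA ligase, Leishmania infantum (UniProt A4I591). Concentration: 30 µM. Direction is inferred from retests: higher values go with stronger inhibition. The assay is labelled LdHisRS but filed under L. infantum. Of about 69,000 compounds tested this way, about 410 (0.6%) reached 50% or more in at least one test.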

Values are the deposited “Percent Effect”, in %.
The controls that fix the scale are not given in the record; negative values are as filed.
The compounds are a random part of those screened.

SMILES,A,B
CCC(CC)CN1C[C@@H]2OCCN(Cc3cnn(C)c3)[C@@H]2C1,-13.6,9.211
CCC[C@@H](NC(N)=O)C(=O)N1Cc2ccccc2-c2ccccc2C1,-13.26,4.712
Cc1cc(CN2CCC3(CC2)CC(C(=O)O)N(C(=O)C2CC2)C3)oc1C (stereo not drawn),3.426,12.9
CC(Oc1ccc2c(c1)OCO2)C(=O)N1CCC(N2CCOCC2)CC1 (stereo not drawn),-2.393,6.667
O=C(CSc1ccncc1)N1C[C@H]2CC[C@@H]1CN(Cc1cccnc1)C2,-7.833,25
C[C@@H]1CN(CC(C)(C)N2CCOCC2)CC[C@@]1(O)C1CCOCC1,-3.224,-10.45
O=C(Nc1ccccc1F)N1CCN(Cc2noc(C3CC3)n2)CC1,1.458,16.22
CC(C)C(c1cccnc1)N(C)C(=O)Cc1c(F)cccc1F (stereo not drawn),-8.129,9.402
CN(Cc1cn2c(n1)CN(C(N)=O)CC2)Cc1ccco1,-2.399,7.965
O=C(CCN1CCCC1c1cccc(F)c1)N1CCc2sccc2C1 (stereo not drawn),-35.85,30.7
Cn1cc(CN2CC[C@@H]3[C@@H]2CCN3C(=O)Cc2cccc(F)c2)cn1,2.621,17
CCSc1ccc(C(C)NC(=O)CCS(C)(=O)=O)cc1 (stereo not drawn),-0.975,15.79
CCOc1cc(Cl)ccc1CNC(=O)c1ccc(=O)n(C)c1,-11.48,5.31
CNc1nc(CNC(=O)Nc2ccc([S+](C)[O-])c(F)c2)cs1 (stereo not drawn),-28.5,11.01
Cc1ccc(CN2CCC3(CCCC(=O)N3)CC2)s1,-7.01,13.59
O=C(NCC1=CCCCC1)C(c1cccnc1)N1CCCC1 (stereo not drawn),13.64,3.125
COCCN(C)C[C@@H]1CN(C(=O)c2cccc(C#N)c2)C[C@@H]1CO,0.1319,-15.73
CC(C)CCS(=O)(=O)CC(=O)N1CCCC1c1cnn(C)c1 (stereo not drawn),-1.382,13.22
COCCOc1ccnc(-c2noc([C@@H]3CCCN3CC(C)(C)C)n2)c1,6.923,6.757
O=C(c1sccc1-n1cnnn1)N1CCC(Cc2ccccc2)CC1,5.983,15.62
COc1cccc(CN2CCCC(c3cc(C(N)=O)[nH]n3)C2)c1 (stereo not drawn),-10.03,1.724
Fc1cnc(N2CCN(Cc3ccc(-c4cc[nH]n4)o3)CC2)nc1,1.951,16.67
COc1ccccc1CC(=O)N1CCCC(CNS(C)(=O)=O)C1 (stereo not drawn),-45.12,5.505
Cn1cc(N2CC[C@@H]3CN(Cc4ccncc4)C[C@H]3C2=O)cn1,6.525,10
CNC(=O)c1cn[nH]c1C1CCN(Cc2sccc2C)C1 (stereo not drawn),-8.918,6.207
CCSCC(C)NCc1nc(-c2cccnc2)no1 (stereo not drawn),-8.012,16.05
Cc1nc(CN2CCCC(NCc3ccc4c(c3)CCO4)C2)no1 (stereo not drawn),17.54,8.696
Cc1nn(CCNC(C)Cn2ccnc2)c(C)c1Cl (stereo not drawn),-0.4118,11.86
COc1ccc(C(CNC(=O)NCc2csc(C)n2)N(C)C)cc1 (stereo not drawn),-16.81,3.636
CC(C)c1cc(=O)[nH]c(-c2ccccc2CN2CCCCCC2)n1,-3.223,12.9
COCC(=O)N1CCN(Cc2csc(-c3ncccn3)n2)CC1,6.17,11.61
Cc1cccc(CN2CCC(NS(C)(=O)=O)CC2)n1,-4.148,18.25
CS(=O)(=O)N1C[C@@H]2CC[C@H](C1)N(Cc1ccsc1)C2,9.244,31.25
FC(F)(F)c1ccnc(N2CCCC(N3CCOCC3)C2)c1 (stereo not drawn),12.46,6.452
CCc1noc(C)c1C(=O)N1C[C@H](NS(C)(=O)=O)[C@@H](C2CC2)C1,-10.36,-1.653
Cc1c(C)n(Cc2ccncc2)c2nc3c(c(N)c12)CCCCCC3,-7.539,13.16
Cc1nnsc1C(=O)NCCNS(=O)(=O)c1cccs1,7.222,10.62
Cc1cc(C)n(CC2CCN(CC(O)COc3ccccc3)CC2)n1 (stereo not drawn),3.989,13.33
CCCc1nnsc1C(=O)NCC(O)c1ccoc1 (stereo not drawn),0.9242,6.452
c1ccn(Cc2nnc3n2CCCN(c2cnccn2)C3)c1,-0.661,11.32
CCN(c1ccc(C(=O)N(Cc2cnn(C)c2)C(C)C)cn1)C(C)C,2.942,-2.857
Cc1nn(C)cc1-c1cc(C(F)F)nc2sc(C(N)=O)c(N)c12,-23.15,20.99
CCOc1ccc(CNC(=O)N2CCCC(CO)C2)cc1F (stereo not drawn),-1.416,5.556
O=C(c1cnccn1)N(CCO)Cc1cc(Br)ccc1F,-7.469,-1.099
COc1ccc(OCCc2cc(C3CNCCO3)nn2C)cc1 (stereo not drawn),6.534,2.837
CCC(CC)NC(=O)Cn1cc(C(N)=O)c(-c2ccccc2)n1,3.975,30.14
Cc1ccc(C(O)CNC(=O)Nc2cc(C)nn2C)cc1 (stereo not drawn),-15.19,18.35
O=C(CCOc1ccccc1)N1CCCC(c2ncc[nH]2)C1 (stereo not drawn),-4.322,6.024

For reference, 4 entries once more:

SMILES	A	B
COCCOc1ccnc(-c2noc([C@@H]3CCCN3CC(C)(C)C)n2)c1	6.923	6.757
CCC(CC)CN1C[C@@H]2OCCN(Cc3cnn(C)c3)[C@@H]2C1	-13.6	9.211
FC(F)(F)c1ccnc(N2CCCC(N3CCOCC3)C2)c1 (stereo not drawn)	12.46	6.452
Cn1cc(CN2CC[C@@H]3[C@@H]2CCN3C(=O)Cc2cccc(F)c2)cn1	2.621	17

Measurements from “University of Dundee, Small-Polar-MMV Screening Library” (2021), ChEMBL document CHEMBL3988442.